# The other results are listed elsewhere or left out.
# What was measured:
# Assay in all cases: glycan array binding signal (z-score within array); higher = stronger binding
# Conditions in all cases: glycan notation: IUPAC condensed, linker removed
# GlcNAc(b1-6)GalNAc = biological target: GlcNAc(b1-6)GalNAc
# How it was run: (§1)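 The Consortium for Functional Glycomics database supplied 3228 glycan arrays, of which those lacking an available protein sequence were dropped. The binding signal, a within-array Z-score, was averaged across arrays of the same protein sequence and across linkers. Negative scores can be read as non-binding.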
# GlcNAc3Prop(b1-4)GlcNAc = biological target: GlcNAc3Prop(b1-4)GlcNAc
# How it was run: as §1
# [1] = biological target: GlcNAc6S(b1-3)Gal(b1-4)GlcNAc
# How it was run: as §1
# Kdn(a2-3)Gal(b1-3)GalNAc = biological target: Kdn(a2-3)Gal(b1-3)GalNAc
# How it was run: as §1
# Kdn(a2-3)Gal(b1-3)GlcNAc = biological target: Kdn(a2-3)Gal(b1-3)GlcNAc
# How it was run: as §1
# Kdn(a2-3)Gal(b1-4)Glc = biological target: Kdn(a2-3)Gal(b1-4)Glc
# How it was run: as §1
# Kdn(a2-3)Gal(b1-4)GlcNAc = biological target: Kdn(a2-3)Gal(b1-4)GlcNAc
# How it was run: as §1
# [2] = biological target: Kdn(a2-3)Gal(b1-4)[Fuc(a1-3)]GlcNAc
# How it was run: as §1
# Kdn(a2-6)Gal(b1-4)GlcNAc = biological target: Kdn(a2-6)Gal(b1-4)GlcNAc
# How it was run: as §1
# [3] = biological target: Man(a1-2)Man(a1-2)Man(a1-3)Man
# How it was run: as §1
# [4] = biological target: Man(a1-2)Man(a1-2)Man(a1-6)[Man(a1-3)]Man
# How it was run: as §1
# Man(a1-2)Man(a1-3)Man = biological target: Man(a1-2)Man(a1-3)Man
# How it was run: as §1
# [5] = biological target: Man(a1-2)Man(a1-3)[Man(a1-2)Man(a1-6)]Man
# How it was run: as §1
# [6] = biological target: Man(a1-2)Man(a1-3)[Man(a1-2)Man(a1-6)]Man(a1-6)[Man(a1-2)Man(a1-2)Man(a1-3)]Man
# How it was run: as §1
# [7] = biological target: Man(a1-2)Man(a1-3)[Man(a1-2)Man(a1-6)]Man(a1-6)[Man(a1-2)Man(a1-2)Man(a1-3)]Man(b1-4)GlcNAc(b1-4)GlcNAc
# How it was run: as §1
# [8] = biological target: Man(a1-2)Man(a1-3)[Man(a1-6)]Man(a1-6)[Man(a1-2)Man(a1-3)]Man(b1-4)GlcNAc(b1-4)GlcNAc
# How it was run: as §1
# [9] = biological target: Man(a1-2)Man(a1-6)[Man(a1-3)]Man(a1-6)[Man(a1-2)Man(a1-2)Man(a1-3)]Man
# How it was run: as §1
# [10] = biological target: Man(a1-2)Man(a1-6)[Man(a1-3)]Man(a1-6)[Man(a1-2)Man(a1-2)Man(a1-3)]Man(b1-4)GlcNAc(b1-4)GlcNAc
# How it was run: as §1
# Man(a1-3)[Man(a1-6)]Man = biological target: Man(a1-3)[Man(a1-6)]Man
# How it was run: as §1
# [11] = biological target: Man(a1-3)[Man(a1-6)]Man(a1-6)[Man(a1-2)Man(a1-3)]Man(b1-4)GlcNAc(b1-4)GlcNAc
# How it was run: as §1
# [12] = biological target: Man(a1-3)[Man(a1-6)]Man(a1-6)[Man(a1-3)]Man
# How it was run: as §1
# [13] = biological target: Man(a1-3)[Man(a1-6)]Man(a1-6)[Man(a1-3)]Man(b1-4)GlcNAc(b1-4)GlcNAc
# How it was run: as §1
# [14] = biological target: Man(a1-3)[Man(a1-6)]Man(b1-4)GlcNAc(b1-4)GlcNAc
# How it was run: as §1
# Man(a1-6)Man = biological target: Man(a1-6)Man
# How it was run: as §1
# Man(b1-4)GlcNAc = biological target: Man(b1-4)GlcNAc
# How it was run: as §1
# Neu5Ac(a2-3)Gal = biological target: Neu5Ac(a2-3)Gal
# How it was run: as §1
# [15] = biological target: Neu5Ac(a2-3)Gal(b1-3)GalNAc
# How it was run: as §1
# [16] = biological target: Neu5Ac(a2-3)Gal(b1-3)GalNAc(b1-3)Gal(a1-4)Gal(b1-4)Glc
# How it was run: as §1
# [17] = biological target: Neu5Ac(a2-3)Gal(b1-3)GalNAc(b1-4)[Neu5Ac(a2-3)]Gal(b1-4)Glc
# How it was run: as §1
# [18] = biological target: Neu5Ac(a2-3)Gal(b1-3)GalNAc(b1-4)[Neu5Ac(a2-8)Neu5Ac(a2-3)]Gal(b1-4)Glc
# How it was run: as §1
# [19] = biological target: Neu5Ac(a2-3)Gal(b1-3)GalNAc6S
# How it was run: as §1
# [20] = biological target: Neu5Ac(a2-3)Gal(b1-3)GlcNAc
# How it was run: as §1
# [21] = biological target: Neu5Ac(a2-3)Gal(b1-3)GlcNAc(b1-3)Gal(b1-3)GlcNAc
# How it was run: as §1
# [22] = biological target: Neu5Ac(a2-3)Gal(b1-3)GlcNAc(b1-3)Gal(b1-4)GlcNAc
# How it was run: as §1
# [23] = biological target: Neu5Ac(a2-3)Gal(b1-3)GlcNAc(b1-3)GalNAc
# How it was run: as §1
# [24] = biological target: Neu5Ac(a2-3)Gal(b1-3)GlcNAc6S
# How it was run: as §1
# [25] = biological target: Neu5Ac(a2-3)Gal(b1-3)[Fuc(a1-4)]GlcNAc
# How it was run: as §1
binder,measurement,setting,value
"Layilin (Mus musculus), Q8C351 (protein) MQPGAALQAMLLAVLLAKPRDSKGRLLSASDLDPRGGQLVCRGGTRRPCYKVIYFHDAFQRLNFEEAKETCMEDGGQLVSIETEDEQRLIEKFIENLLASDGDFWIGLKRLEEKQSNNTACQDLYAWTDGSTSQFRNWYVDEPSCGSEVCVVMYHQPSAPPGIGGSYMFQWNDDRCNMKNNFICKYHDDKPSTTPSIWPGGEATEPATPLLPEETQKEDTKETFKERREAALNLAYILIPSIPLFLLLVVTSAVCWVWICRRKREQTDPSTKEQHTIWPTPRQENSPNLDVYNVIRKQSEADLAEPRPDLKNISFRVCSGEAMPDDMSCDYENIAVNPSESGFVTLASMESGFVTNDIYEFSPDRMGRSKESGWVENEIYY",glycan array binding signal (z-score),GlcNAc(b1-6)GalNAc,-0.344
same,glycan array binding signal (z-score),GlcNAc3Prop(b1-4)GlcNAc,-0.712
same,glycan array binding signal (z-score),[1],0.039
same,glycan array binding signal (z-score),Kdn(a2-3)Gal(b1-3)GalNAc,-0.958
same,glycan array binding signal (z-score),Kdn(a2-3)Gal(b1-3)GlcNAc,-0.719
same,glycan array binding signal (z-score),Kdn(a2-3)Gal(b1-4)Glc,-0.761
same,glycan array binding signal (z-score),Kdn(a2-3)Gal(b1-4)GlcNAc,1.94
same,glycan array binding signal (z-score),[2],-0.051
same,glycan array binding signal (z-score),Kdn(a2-6)Gal(b1-4)GlcNAc,0.171
same,glycan array binding signal (z-score),[3],-0.78
same,glycan array binding signal (z-score),[4],-0.448
same,glycan array binding signal (z-score),Man(a1-2)Man(a1-3)Man,-0.607
same,glycan array binding signal (z-score),[5],0.857
same,glycan array binding signal (z-score),[6],-0.821
same,glycan array binding signal (z-score),[7],0.181
same,glycan array binding signal (z-score),[8],-0.059
same,glycan array binding signal (z-score),[9],-0.399
same,glycan array binding signal (z-score),[10],-0.764
same,glycan array binding signal (z-score),Man(a1-3)[Man(a1-6)]Man,-0.128
same,glycan array binding signal (z-score),[11],-0.624
same,glycan array binding signal (z-score),[12],-0.713
same,glycan array binding signal (z-score),[13],0.072
same,glycan array binding signal (z-score),[14],-0.043
same,glycan array binding signal (z-score),Man(a1-6)Man,-0.763
same,glycan array binding signal (z-score),Man(b1-4)GlcNAc,-0.401
same,glycan array binding signal (z-score),Neu5Ac(a2-3)Gal,-0.557
same,glycan array binding signal (z-score),[15],-0.199
same,glycan array binding signal (z-score),[16],-1.1
same,glycan array binding signal (z-score),[17],-0.717
same,glycan array binding signal (z-score),[18],0.054
same,glycan array binding signal (z-score),[19],1.1
same,glycan array binding signal (z-score),[20],0.72
same,glycan array binding signal (z-score),[21],-0.153
same,glycan array binding signal (z-score),[22],0.14
same,glycan array binding signal (z-score),[23],-0.44
same,glycan array binding signal (z-score),[24],-0.283
same,glycan array binding signal (z-score),[25],-1.22

# Quoted at random: 2 entries already listed.
binder,measurement,setting,value
"Layilin (Mus musculus), Q8C351 (protein) MQPGAALQAMLLAVLLAKPRDSKGRLLSASDLDPRGGQLVCRGGTRRPCYKVIYFHDAFQRLNFEEAKETCMEDGGQLVSIETEDEQRLIEKFIENLLASDGDFWIGLKRLEEKQSNNTACQDLYAWTDGSTSQFRNWYVDEPSCGSEVCVVMYHQPSAPPGIGGSYMFQWNDDRCNMKNNFICKYHDDKPSTTPSIWPGGEATEPATPLLPEETQKEDTKETFKERREAALNLAYILIPSIPLFLLLVVTSAVCWVWICRRKREQTDPSTKEQHTIWPTPRQENSPNLDVYNVIRKQSEADLAEPRPDLKNISFRVCSGEAMPDDMSCDYENIAVNPSESGFVTLASMESGFVTNDIYEFSPDRMGRSKESGWVENEIYY",glycan array binding signal (z-score),Man(a1-3)[Man(a1-6)]Man,-0.128
same,glycan array binding signal (z-score),[24],-0.283

# From the supplement of paper PMC8728848
